Test [1] has as its target T1, Interferon regulatory factor 1 (IRF1), endogenous in ox-LDL loaded macrophages (mouse (endogenous in peritoneal macrophages)) (UniProt P15314).
T1 sequence: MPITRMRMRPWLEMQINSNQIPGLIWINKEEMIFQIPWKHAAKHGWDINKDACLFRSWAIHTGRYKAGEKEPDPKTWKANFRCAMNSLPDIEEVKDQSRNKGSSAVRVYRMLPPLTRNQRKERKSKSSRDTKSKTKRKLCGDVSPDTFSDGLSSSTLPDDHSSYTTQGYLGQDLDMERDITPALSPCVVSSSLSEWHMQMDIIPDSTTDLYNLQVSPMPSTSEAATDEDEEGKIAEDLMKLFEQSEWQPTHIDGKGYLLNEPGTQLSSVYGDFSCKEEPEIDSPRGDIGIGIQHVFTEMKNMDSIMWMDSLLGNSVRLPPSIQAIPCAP
The test is described as follows: co-IP; immunoprecipitation with control IgG or an anti-IRF1 antibody from lysates of ox-LDL incubated macrophages with or without LPS challenge (50 pg/mL), with scramble siRNA or si-Myd88; immunoblot for Myd88 or Ubc9; endogenous proteins. (In general: A western blot detects proteins with antibodies after separation by electrophoresis.)

Sequences of proteins named here, by UniProt entry; tags and fusion partners are left off.
UniProt P63280: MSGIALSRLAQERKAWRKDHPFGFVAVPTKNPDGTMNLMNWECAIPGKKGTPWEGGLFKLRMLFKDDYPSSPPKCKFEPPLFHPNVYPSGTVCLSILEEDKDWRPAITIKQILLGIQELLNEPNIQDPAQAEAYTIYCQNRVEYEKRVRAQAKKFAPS

Test [2] deals with T2, IRF1, recombinant protein of the GST precipitation assay (UniProt P15314).
T2 sequence: T1 sequence
The test is described as follows: pull-down; glutathione-S-transferase (GST) precipitation assay using recombinant proteins; both purified.

These are yes or no findings as the source states them, for the method shown. For some assays here: In cells and extracts the contact can be indirect. Some results given as binding are weak or reduced against the parent protein; the word gives no strength. For some assays here: Sequences can lack the tags named with a protein.

On to “Ubc9, SUMO E2-conjugating enzyme, endogenous in ox-LDL loaded macrophages (from UniProt P63280 1-158)”, for which, in test [1], the binding result is reported as “binds”.

As for “Ubc9, recombinant protein of the GST precipitation assay (from UniProt P63280 1-158) (enzyme)”, the binding result in test [2] is “binds”.
